Among the data in PubChem BioAssay AID493014 (National Center for Advancing Translational Sciences (NCATS), 2011) are AC50 values, retold here.

The list shows a part of the results. The main result of the screen is listed elsewhere. These columns were measured beside it and carry no call. Most of these compounds were active or inconclusive in the main read-out, so they are no random draw. The note in brackets gives the kind of curve behind each potency; many fits are weak.

A short description of the assay: qHTS Assay to Find Inhibitors of Chronic Active B-Cell Receptor Signaling. The conditions noted are these: ABC-DLBCL IkBa-CBG/CBR reporter, luminescence ratio (green luciferase fused to IkBa over red control in TMD8 lymphoma cells), 4 h. The source says:
NIH Molecular Libraries Probe Production Network [MLPCN] NIH Chemical Genomics Center [NCGC] MLPCN Grant: 1 R03 DA031086-01A1 PI Name: Dr. R. Eric Davis NCGC Assay Overview: Diffuse large B-cell lymphoma (DLBCL) is the most common category of non-Hodgkin lymphoma, with ~20,000 new cases per year in the United States. DLBCL should be regarded as a collection of different neoplasms. Microarray gene expression analysis has defined two principal types of DLBCL, named for their similarity to normal B cell stages or activation states: a germinal center B-cell (GCB) type, and an activated B-cell (ABC) type. In ABC-DLBCL, a constitutive high-level activity of the NF-kappaB family of transcription factors has been observed (1) and NF-kappaB target genes are more highly expressed in ABC primary tumors than in GCB tumors. Functional studies have shown a constitutive high-level activity of the IkappaB (inhibitor of kappa-B) kinase (IKK) complex. […] Further analysis of DLBCL primary tumors for NF-kappaB target gene expression imply that although CARD11 is required for constitutive IKK activity in all ABC-DLBCL lines, mutations in CARD11 may be the root cause of IKK activation only in lines or tumors with such mutations. In other words, CARD11 mutations may explain NF-kappaB activation in only 10% of ABC-DLBCL cases. […] This process has been termed 'chronic active BCR signaling' (CABS). The goal of this screen is to find small-molecule inhibitors of the CABS pathway found in ABC-DLBCL lines using a cell-based assay that measures IkappaBalpa stability, which has already been extensively validated in the OCI-Ly3 line (PubChem AID:445; REF: 4). […] The assay uses green (CBG68) and red (CBR) emitting beetle luciferases [Chroma-GloTM developed by Promega Corp.] where the green luciferase is fused to IkappaBalpha and the red luciferase is present in its native state. Both luciferase genes are stably present in the TMD8 human ABC DLBCL cell line, but their expression is under the control of tetracycline-inducible promoters. Following the addition of doxycycline to induce expression of the luciferases, the green luminescence in control cultures rises only slowly because the CBG fusion partner IkappaBalpha is targeted by IKK activity for rapid degradation. In contrast, green luminescence rises rapidly in the presence of proteasome inhibitors or IKK inhibitors. The rise in red luminescence of CBR is not affected by proteasome or IKK inhibitors, and serves as normalization for cell number and nonspecific effects. Compounds were screened as a concentration-titration series that ranged from 46 uM to 3 nM.
NCGC Assay Protocol Summary: Cells were seeded in 1536-well plates at 5000 cells/4uL in IMDM medium containing 0.5% FBS, w/o phenol red, 1% penicillin/streptomycin. Then, 23 nL of compounds or DMSO were delivered to each well using a pin tool. One uL 20ng/ml doxycycline was then dispensed into white solid 1536-well plates and the plates were incubated at 37C/5% C02 in a cell incubator for 4 hrs. Then 4 uL luminescent substrate mix (in-house prepared: 150 mM Tris-Cl, pH 7.6, 3 mM MgCl2, 1% Triton X-100, 5 mM DTT, 0.2 mM CoA, 0.15 mM ATP, 5 mM D-luciferin, final concentrations) was added to each well. The plate was incubated at r.t. for 10-15 min. The plates were measured on a ViewLux plate reader for green luminescence (540/20 nm filter) and red luminescence (618/8 nm filter). The green and red luminescent signals were corrected for red and green luminescence filter overlap using previously determined filter calibration constants (determined using the procedure outlined in the Promega Technical Manual; REF 4). The %Activity was determined from the ratio of corrected green/red luminescent values. MG132 were used as control. […] Red luminescent %Activity was normalized to the difference between red luminesence in basal cells (0%Activity) and zero luminescence (-100% Activity). […]
A general note: qHTS replaces the single test concentration by a dilution series.

Setting [1] is: measured here: CBR red luminescence, cell number.
Where [2] appears, read: measured here: IkBa-CBG green luminescence.

With `O=C(Cn1c2ccccc2c(=O)c2cc([N+](=O)[O-])ccc21)Nc1ccccc1Cl`, the AC50 (commonly the concentration at which the activity in the assay is half-maximal) under setting [1] was 0.58 µM [rising, full curve, poor fit]. In the case of `Cc1csc(NC(=O)CSc2nc3sc(C)c(C)c3c(=O)[nH]2)n1`, the AC50 under setting [1] is 29.1 µM [falling, single point]. For the compound `O=C(CSc1ccc2nnc(-c3cccnc3)n2n1)Nc1ccc(F)cc1`, the AC50 under setting [1] is 3.16 µM [falling, single point]. For the compound `Cc1ccc(NC2=C/C(=N\S(=O)(=O)c3cccs3)c3ccccc3C2=O)c(C)c1`, the half-maximal activity concentration (AC50) is, setting by setting: under setting [1], 5.17 µM [falling, full curve, poor fit]; under setting [2], 5.17 µM [rising, full curve]. With `O=C(COc1ccc(Cl)cc1Cl)NCC1(N2CCOCC2)CCCCC1`, under setting [1], the AC50 is 0.0651 µM [rising, full curve, poor fit]. As to `CCCOc1ccc(C2=NNC(c3cccs3)=Nc3ccc(OC)cc32)cc1`, the AC50 under setting [1] is 32.6 µM [falling, single point]. As for `Fc1ccc(CNc2nc3ccccc3n3nnnc23)cc1`, the AC50 under setting [1] was 3.98 µM [falling, full curve]. With `CC(C)c1ccc(/C=C2\SC(=S)N(CCC(=O)NCCCn3ccnc3)C2=O)cc1`, the AC50 under setting [1] was 6.31 µM [falling, full curve]. Take `COc1cccc(C(=O)NNC(=O)C(=O)Nc2cccc3ccccc23)c1`: under setting [1], the AC50 was 0.282 µM [falling, full curve, poor fit]. Regarding `O=C(NNC1=C(C(=O)C(F)(F)F)CCC1)c1cccc(O)c1`, the concentration at half-maximal activity (AC50) under setting [1] is 4.61 µM [falling, partial curve]. For `N#C/C(=N\Nc1ccc(Cl)cc1)C(=N)N1CCCCC1`, the AC50 under setting [1] was 14.1 µM [falling, single point].

Consider `COc1ccccc1NC(=O)CSc1c2c(nc3ccccc13)CCC2`, for which the AC50 under setting [1] is 23.1 µM [falling, single point]. Consider `Cc1nn(-c2ccccc2)c2sc(C(=O)N(CC(=O)NC(C)(C)C)Cc3ccco3)cc12`, for which the AC50 under setting [1] was 29.1 µM [falling, single point] and the AC50 under setting [2] is 32.6 µM [rising, partial curve, poor fit].

Take `COc1ccc(C(=O)Nc2ccc3c(c2)OCCO3)cc1Br`: under setting [1], the AC50 was 35.5 µM [falling, partial curve, poor fit].

For `O=C(Nc1ccccc1O)c1cccc(NC(=O)c2ccco2)c1`, the AC50 under setting [1] is 14.1 µM [falling, single point]. The same measure, in the same setting: for `O=C(N/N=C/C=C/c1ccccc1)c1cnccn1` the value was 8.2 µM [falling, partial curve]; for `O=C(Nn1c(SCc2cccc([N+](=O)[O-])c2)nc2ccccc2c1=O)c1ccccc1`, 0.13 µM [rising, full curve, poor fit]; for `CC(=O)c1cccc(Nc2nc(-c3cccnc3)cs2)c1`, 35.5 µM [falling, single point].

For `Cc1ccc(Nc2nc3ccccc3s2)c(C)c1`, under setting [1], the AC50 is 0.411 µM [rising, full curve]. Consider `CCc1ccc(C2CC(c3ccccc3)n3ncnc3N2)cc1` (centres undefined), for which, under setting [1], the AC50 is 3.66 µM [rising, single point].

As for `O=[N+]([O-])c1ccc(NCCOc2ccccc2Cl)nc1`, the AC50 under setting [1] is 0.891 µM [rising, full curve, poor fit]. With `COc1ccc(CCNC(=O)c2ccc(-c3ccc([N+](=O)[O-])cc3)o2)cc1OC`, the AC50 under setting [1] is 0.731 µM [rising, full curve, poor fit]. With `O=C(COC(=O)c1cccnc1Cl)NCc1ccc(F)cc1`, under setting [1], the AC50 is 0.184 µM [rising, full curve, poor fit]. As to `CCOc1ccc(CCNC(=O)c2cccc(S(=O)(=O)N3CCCC3)c2)cc1OCC`, the AC50 under setting [1] is 8.2 µM [rising, partial curve]. In the case of `COc1ccc(C)c2sc(NC(=O)C3=COCCO3)nc12`, the AC50 under setting [1] is 5.8 µM [falling, partial curve]. In the case of `COc1c(NC(C)=O)c2ccccc2c2ccccc12`, the AC50 is, setting by setting: under setting [1], 1.78 µM [falling, full curve, poor fit]; under setting [2], 2.82 µM [rising, full curve, poor fit]. Regarding `CC(=O)c1ccc(NC(=O)Cc2ccsc2)cc1`, the AC50 under setting [1] was 6.31 µM [rising, single point].

As for `CC(C)(C)Cc1nnc(NS(=O)(=O)Cc2ccccc2)s1`, under setting [1], the AC50 is 1.26 µM [falling, partial curve, poor fit].

For `O=C(/C=C/c1cccc(Cl)c1)Nc1ncccn1`, the AC50 under setting [1] is 18.4 µM [falling, partial curve]. Regarding `Cc1cc(Cl)ccc1NC(=S)N1CCN(Cc2ccccc2)CC1`, under setting [1], the AC50 was 18.4 µM [falling, partial curve, poor fit]. For the compound `Cc1ccc(OCC(=O)Oc2ccc(C(C)C)cc2)cc1`, under setting [1], the AC50 is 5.01 µM [rising, partial curve, poor fit]. `Cc1cccc(NC(=S)NCC2CCCO2)c1` (centres undefined): the AC50 under setting [1] is 11.6 µM [rising, partial curve, poor fit].

As to `COc1cc(C)ccc1OCCOc1cc(C)ccc1Cl`, the AC50 under setting [1] was 12.6 µM [rising, partial curve, poor fit]. `COc1ccc(OCC(=O)Nc2ccc3c(c2)nc(CCN2CCOCC2)n3C)cc1`: under setting [1], the AC50 was 6.31 µM [falling, single point]. Turning to `CC(C)(C)Cc1nnc(NC(=O)CSc2ccccc2)s1`, the AC50 under setting [1] is 10 µM [falling, partial curve, poor fit].

Take `C=CCn1c(SCC(=O)Nc2ccc(F)cc2F)nnc1-c1cnccn1`: under setting [1], the AC50 is 4.47 µM [falling, full curve, poor fit]. On to `CC1CCN(CCc2nc3cc(NS(=O)(=O)c4ccc(F)cc4)ccc3n2C)CC1`, for which the AC50 under setting [1] was 13 µM [falling, partial curve, poor fit].

Regarding `Oc1ccc(Oc2ccc(Oc3ccc(O)cc3)cc2)cc1`, the AC50 under setting [1] is 35.5 µM [falling, single point]. Consider `CC(=O)c1ccc(NC(=O)CSc2nc3ccccc3c(=O)n2CCCN2CCOCC2)cc1`, for which the AC50 under setting [2] is 5.17 µM [falling, partial curve, poor fit].

Take `Oc1ccc(-c2csc(Nc3cccnc3)n2)cc1`: under setting [1], the AC50 was 0.231 µM [rising, full curve, poor fit]. The same measure, in the same setting: with `COc1ccc(C2=Nn3c(nnc3-c3cccnc3)SC2)cc1OC` the figure was 3.98 µM [rising, partial curve, poor fit].
